In the supplement of paper PMC12823440, “Inhibitors supercharge kinase turnover through native proteolytic circuits” (Nature, 2025):
This is one part of the list. Hit calls seldom repeat between salt and free forms of one compound.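 Kinases were expressed as nanoluciferase fusions in K562 cells and luminescence was read every 4 h between 2 and 18 h as percent of control, DMSO set to 100% and a positive control to 0%. A time point counts as decreased when the signal drops significantly (2 sigma). The hit call is the authors' own, does not follow from the count of time points alone, and its rule is not shown.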

By UniProt entry, the sequences of proteins in these tests, tags left out. Where a name states a change or a piece, a line headed by the entry shows the natural chain unless it says otherwise.
UniProt Q01974, whole entry: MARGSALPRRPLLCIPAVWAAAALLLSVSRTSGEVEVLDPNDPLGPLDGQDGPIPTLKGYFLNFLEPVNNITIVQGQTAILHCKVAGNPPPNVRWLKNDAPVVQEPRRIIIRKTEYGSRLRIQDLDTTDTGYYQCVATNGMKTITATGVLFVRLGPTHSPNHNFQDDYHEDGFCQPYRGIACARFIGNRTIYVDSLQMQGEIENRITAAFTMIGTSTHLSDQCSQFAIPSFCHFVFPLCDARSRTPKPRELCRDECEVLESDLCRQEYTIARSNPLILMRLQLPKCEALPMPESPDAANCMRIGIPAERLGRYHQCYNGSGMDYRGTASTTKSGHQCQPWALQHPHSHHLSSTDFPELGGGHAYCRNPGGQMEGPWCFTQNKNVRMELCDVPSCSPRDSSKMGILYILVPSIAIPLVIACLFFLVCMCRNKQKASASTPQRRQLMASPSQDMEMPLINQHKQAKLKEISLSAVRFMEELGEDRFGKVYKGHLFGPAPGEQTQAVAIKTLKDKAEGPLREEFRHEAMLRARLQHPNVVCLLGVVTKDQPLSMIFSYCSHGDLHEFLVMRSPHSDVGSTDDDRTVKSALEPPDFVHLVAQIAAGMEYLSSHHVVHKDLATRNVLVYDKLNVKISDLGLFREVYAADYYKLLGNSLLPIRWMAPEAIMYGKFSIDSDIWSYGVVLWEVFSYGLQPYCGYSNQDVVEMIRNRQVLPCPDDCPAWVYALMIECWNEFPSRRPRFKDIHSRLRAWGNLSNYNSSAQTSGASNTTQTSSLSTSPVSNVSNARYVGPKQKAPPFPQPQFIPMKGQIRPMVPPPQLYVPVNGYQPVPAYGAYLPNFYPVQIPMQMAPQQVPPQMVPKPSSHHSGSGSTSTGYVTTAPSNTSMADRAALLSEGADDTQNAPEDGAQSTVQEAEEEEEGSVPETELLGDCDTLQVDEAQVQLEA
UniProt Q9UBF8: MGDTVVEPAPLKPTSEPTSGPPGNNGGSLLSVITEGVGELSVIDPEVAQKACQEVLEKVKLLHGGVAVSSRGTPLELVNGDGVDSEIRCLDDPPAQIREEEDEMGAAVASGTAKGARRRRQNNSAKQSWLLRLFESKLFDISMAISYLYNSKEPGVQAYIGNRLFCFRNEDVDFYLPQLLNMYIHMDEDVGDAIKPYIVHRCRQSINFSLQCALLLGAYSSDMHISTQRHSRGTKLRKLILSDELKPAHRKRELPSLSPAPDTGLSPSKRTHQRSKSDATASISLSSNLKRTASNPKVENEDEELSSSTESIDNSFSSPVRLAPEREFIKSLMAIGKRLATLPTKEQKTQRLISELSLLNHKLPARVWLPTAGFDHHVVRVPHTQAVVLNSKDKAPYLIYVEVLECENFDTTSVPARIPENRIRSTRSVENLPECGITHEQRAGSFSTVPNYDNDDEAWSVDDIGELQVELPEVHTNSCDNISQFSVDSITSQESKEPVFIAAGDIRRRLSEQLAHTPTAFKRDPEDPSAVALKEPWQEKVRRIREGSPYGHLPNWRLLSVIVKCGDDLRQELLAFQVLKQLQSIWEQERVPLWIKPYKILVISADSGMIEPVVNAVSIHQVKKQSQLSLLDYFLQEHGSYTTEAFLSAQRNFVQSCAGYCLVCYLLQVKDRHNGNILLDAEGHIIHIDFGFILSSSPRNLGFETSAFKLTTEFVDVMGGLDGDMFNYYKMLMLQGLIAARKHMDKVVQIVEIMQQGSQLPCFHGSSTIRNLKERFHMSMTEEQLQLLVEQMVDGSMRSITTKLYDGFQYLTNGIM
UniProt P06239: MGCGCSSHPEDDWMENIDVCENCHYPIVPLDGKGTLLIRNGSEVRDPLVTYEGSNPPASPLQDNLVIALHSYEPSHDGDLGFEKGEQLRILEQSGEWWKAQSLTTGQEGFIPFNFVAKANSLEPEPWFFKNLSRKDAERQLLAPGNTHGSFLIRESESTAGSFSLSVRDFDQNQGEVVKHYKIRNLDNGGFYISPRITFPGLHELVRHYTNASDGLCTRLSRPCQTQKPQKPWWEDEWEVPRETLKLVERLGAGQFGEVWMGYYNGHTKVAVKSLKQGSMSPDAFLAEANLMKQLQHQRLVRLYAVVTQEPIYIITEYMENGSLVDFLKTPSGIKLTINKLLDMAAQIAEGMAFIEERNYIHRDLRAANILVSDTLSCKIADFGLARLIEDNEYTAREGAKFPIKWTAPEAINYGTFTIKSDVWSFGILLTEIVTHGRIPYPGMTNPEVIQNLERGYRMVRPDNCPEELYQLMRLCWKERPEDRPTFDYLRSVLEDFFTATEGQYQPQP
UniProt P53667: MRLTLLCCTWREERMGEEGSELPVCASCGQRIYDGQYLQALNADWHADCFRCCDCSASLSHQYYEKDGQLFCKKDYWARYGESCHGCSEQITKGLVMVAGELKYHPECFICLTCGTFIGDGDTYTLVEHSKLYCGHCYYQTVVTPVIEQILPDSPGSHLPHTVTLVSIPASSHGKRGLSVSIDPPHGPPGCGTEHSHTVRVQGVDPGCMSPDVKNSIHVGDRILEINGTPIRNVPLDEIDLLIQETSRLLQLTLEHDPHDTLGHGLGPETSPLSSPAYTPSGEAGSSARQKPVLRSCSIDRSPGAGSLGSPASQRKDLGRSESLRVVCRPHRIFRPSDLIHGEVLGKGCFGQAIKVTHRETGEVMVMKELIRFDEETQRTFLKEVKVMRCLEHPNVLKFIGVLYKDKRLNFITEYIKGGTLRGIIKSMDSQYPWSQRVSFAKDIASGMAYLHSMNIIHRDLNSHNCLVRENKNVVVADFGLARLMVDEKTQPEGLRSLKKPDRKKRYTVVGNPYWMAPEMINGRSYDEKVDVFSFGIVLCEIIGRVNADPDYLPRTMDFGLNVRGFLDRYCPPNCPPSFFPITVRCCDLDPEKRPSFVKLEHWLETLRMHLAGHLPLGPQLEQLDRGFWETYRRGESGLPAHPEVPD
UniProt P28482, whole entry: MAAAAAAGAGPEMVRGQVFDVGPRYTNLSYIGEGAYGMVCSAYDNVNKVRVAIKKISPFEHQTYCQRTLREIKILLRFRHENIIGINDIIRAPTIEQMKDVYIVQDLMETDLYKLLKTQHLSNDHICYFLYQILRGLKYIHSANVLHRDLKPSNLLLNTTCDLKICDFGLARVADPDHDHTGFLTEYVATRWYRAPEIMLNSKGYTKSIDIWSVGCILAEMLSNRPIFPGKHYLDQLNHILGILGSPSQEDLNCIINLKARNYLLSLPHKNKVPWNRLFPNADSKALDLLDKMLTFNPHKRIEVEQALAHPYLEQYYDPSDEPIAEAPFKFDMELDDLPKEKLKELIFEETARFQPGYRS
UniProt Q00535, whole entry, looked up: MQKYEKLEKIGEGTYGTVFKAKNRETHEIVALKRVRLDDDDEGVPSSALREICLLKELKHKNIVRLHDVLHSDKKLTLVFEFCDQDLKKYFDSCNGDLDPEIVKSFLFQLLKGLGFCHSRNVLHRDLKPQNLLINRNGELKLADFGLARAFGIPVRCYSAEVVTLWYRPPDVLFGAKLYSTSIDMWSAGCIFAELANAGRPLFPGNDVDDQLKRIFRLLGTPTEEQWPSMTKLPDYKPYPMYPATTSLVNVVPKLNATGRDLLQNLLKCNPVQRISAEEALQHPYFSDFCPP
UniProt P00519, whole entry: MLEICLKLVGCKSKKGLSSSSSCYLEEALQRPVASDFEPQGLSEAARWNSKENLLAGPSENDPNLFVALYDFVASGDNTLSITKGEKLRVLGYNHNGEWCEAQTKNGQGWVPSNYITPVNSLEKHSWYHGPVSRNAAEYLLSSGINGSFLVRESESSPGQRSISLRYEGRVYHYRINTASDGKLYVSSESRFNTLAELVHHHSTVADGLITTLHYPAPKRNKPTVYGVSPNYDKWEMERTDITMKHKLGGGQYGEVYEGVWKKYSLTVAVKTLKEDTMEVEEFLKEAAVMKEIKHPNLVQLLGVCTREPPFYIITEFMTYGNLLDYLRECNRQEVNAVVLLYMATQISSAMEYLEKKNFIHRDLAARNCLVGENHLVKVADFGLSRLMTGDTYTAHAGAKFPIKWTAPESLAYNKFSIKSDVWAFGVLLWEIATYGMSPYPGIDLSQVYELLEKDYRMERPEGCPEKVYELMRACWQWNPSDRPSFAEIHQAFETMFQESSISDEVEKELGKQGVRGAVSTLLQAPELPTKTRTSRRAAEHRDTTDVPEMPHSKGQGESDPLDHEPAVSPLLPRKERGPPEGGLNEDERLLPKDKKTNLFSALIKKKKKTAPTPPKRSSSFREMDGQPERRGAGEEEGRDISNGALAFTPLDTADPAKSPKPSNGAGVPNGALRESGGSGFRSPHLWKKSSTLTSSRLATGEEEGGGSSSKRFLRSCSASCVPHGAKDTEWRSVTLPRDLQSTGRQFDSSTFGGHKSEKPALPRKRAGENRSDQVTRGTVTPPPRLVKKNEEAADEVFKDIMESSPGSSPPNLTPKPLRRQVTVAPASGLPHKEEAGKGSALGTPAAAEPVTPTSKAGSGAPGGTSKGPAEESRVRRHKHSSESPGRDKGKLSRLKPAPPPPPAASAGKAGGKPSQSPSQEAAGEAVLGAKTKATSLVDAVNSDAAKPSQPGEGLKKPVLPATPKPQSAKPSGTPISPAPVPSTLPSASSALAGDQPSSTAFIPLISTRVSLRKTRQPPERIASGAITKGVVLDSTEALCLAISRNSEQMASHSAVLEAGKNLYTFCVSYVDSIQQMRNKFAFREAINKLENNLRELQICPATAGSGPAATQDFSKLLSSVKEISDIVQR
UniProt Q13131: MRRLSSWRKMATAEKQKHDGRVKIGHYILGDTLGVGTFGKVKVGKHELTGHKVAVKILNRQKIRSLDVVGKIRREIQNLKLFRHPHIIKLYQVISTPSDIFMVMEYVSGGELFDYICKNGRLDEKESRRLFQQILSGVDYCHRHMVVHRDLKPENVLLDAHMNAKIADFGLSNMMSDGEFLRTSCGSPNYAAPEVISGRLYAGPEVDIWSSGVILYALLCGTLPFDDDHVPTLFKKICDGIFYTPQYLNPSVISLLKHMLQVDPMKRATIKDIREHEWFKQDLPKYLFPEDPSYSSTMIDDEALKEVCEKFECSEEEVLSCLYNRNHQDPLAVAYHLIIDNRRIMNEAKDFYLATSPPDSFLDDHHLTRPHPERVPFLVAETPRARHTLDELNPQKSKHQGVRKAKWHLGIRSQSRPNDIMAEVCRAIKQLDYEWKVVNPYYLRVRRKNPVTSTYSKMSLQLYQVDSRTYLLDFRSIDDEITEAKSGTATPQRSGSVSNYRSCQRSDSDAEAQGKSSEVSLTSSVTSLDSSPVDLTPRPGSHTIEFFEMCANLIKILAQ

Columns and labels:
Experiment in all cases: number of time points (of 5) at which kinase-Nluc abundance scored as decreased, DMSO-normalised (count); higher = more persistent destabilization
[1] = compound: CC(=O)Nc1cccc(-n2c(=O)n(C3CC3)c(=O)c3c(Nc4ccc(I)cc4F)n(C)c(=O)c(C)c32)c1 [Trametinib]; details: 10 µM; K562; 2-18 h
[2] = compound: CC(=O)c1c(C)c2cnc(Nc3ccc(N4CCNCC4)cn3)nc2n(C2CCCC2)c1=O [Palbociclib (isethionate)]; details: 10 µM; K562; 2-18 h
[3] = compound: CC(=O)c1c(C)c2cnc(Nc3ccc(N4CCNCC4)cn3)nc2n(C2CCCC2)c1=O [Palbociclib (monohydrochloride)]; details: 10 µM; K562; 2-18 h
[4] = compound: CC(C)(C)n1nc(-c2cccc3ccccc23)c2c(N)ncnc21 [1-Naphthyl PP1 (hydrochloride)]; details: 10 µM; K562; 2-18 h
[5] = compound: CC(C)(C)n1nc(-c2cccc3ccccc23)c2c(N)ncnc21 [1-Naphthyl PP1]; details: 10 µM; K562; 2-18 h
[6] = compound: CC(C)NC[C@@H](C(=O)N1CCN(c2ncnc3c2[C@H](C)C[C@H]3O)CC1)c1ccc(Cl)cc1 [Ipatasertib (dihydrochloride)]; details: 10 µM; K562; 2-18 h
[7] = compound: CC(C)NC[C@@H](C(=O)N1CCN(c2ncnc3c2[C@H](C)C[C@H]3O)CC1)c1ccc(Cl)cc1 [Ipatasertib]; details: 10 µM; K562; 2-18 h
[8] = compound: CC(C)Nc1cc(-c2c[nH]c(C(=O)N[C@H](CO)c3cccc(Cl)c3)c2)c(Cl)cn1 [Ulixertinib (hydrochloride)]; details: 10 µM; K562; 2-18 h
[9] = compound: CC(C)Nc1cc(-c2c[nH]c(C(=O)N[C@H](CO)c3cccc(Cl)c3)c2)c(Cl)cn1 [Ulixertinib]; details: 10 µM; K562; 2-18 h
[10] = compound: CC(C)Oc1ccc(-c2nn([C@@H](C)c3oc4ccc(F)cc4c(=O)c3-c3cccc(F)c3)c3ncnc(N)c23)cc1F [Umbralisib (hydrochloride)]; details: 2.5 µM; K562; 2-18 h
[11] = compound: CC(C)Oc1ccc(-c2nn([C@@H](C)c3oc4ccc(F)cc4c(=O)c3-c3cccc(F)c3)c3ncnc(N)c23)cc1F [Umbralisib]; details: 2.5 µM; K562; 2-18 h
[12] = compound: CCCC(=O)Nc1ncnc2c1ncn2[C@@H]1O[C@@H]2COP(=O)(O)O[C@H]2[C@H]1OC(=O)CCC [Bucladesine (calcium)]; details: 10 µM; K562; 2-18 h
[13] = compound: CCCC(=O)Nc1ncnc2c1ncn2[C@@H]1O[C@@H]2COP(=O)(O)O[C@H]2[C@H]1OC(=O)CCC [Bucladesine (sodium)]; details: 10 µM; K562; 2-18 h
[14] = compound: CCCCCCCCc1ccc(CCC(N)(CO)CO)cc1 [Fingolimod (hydrochloride)]; details: 2.5 µM; K562; 2-18 h
[15] = compound: CCCCCCCCc1ccc(CCC(N)(CO)CO)cc1 [Fingolimod]; details: 2.5 µM; K562; 2-18 h
[16] = compound: CCN(CC)CC(=O)Nc1c(C)cccc1C [Lidocaine (hydrochloride)]; details: 10 µM; K562; 2-18 h
[17] = compound: CCN(CC)CC(=O)Nc1c(C)cccc1C [Lidocaine]; details: 10 µM; K562; 2-18 h
[18] = compound: CCN(CC)Cc1ccc(OC)c(-c2cc3c(-c4ccc(C(=O)O)c(C(C)C)c4)ccnc3[nH]2)c1; details: K562, 2-18 h
[19] = compound: CCS(=O)(=O)N1CC(CC#N)(n2cc(-c3ncnc4[nH]ccc34)cn2)C1 [Baricitinib (phosphate)]; details: 10 µM; K562; 2-18 h
[20] = compound: CCS(=O)(=O)N1CC(CC#N)(n2cc(-c3ncnc4[nH]ccc34)cn2)C1 [Baricitinib]; details: 10 µM; K562; 2-18 h

Target | number of time points [1] | number of time points [2] | number of time points [3] | number of time points [4] | number of time points [5] | number of time points [6] | number of time points [7] | number of time points [8] | number of time points [9] | number of time points [10] | number of time points [11] | number of time points [12] | number of time points [13] | number of time points [14] | number of time points [15] | number of time points [16] | number of time points [17] | number of time points ([18]; 2.5 µM) | number of time points ([18]; 10 µM) | number of time points [19] | number of time points [20]
ROR2 (UniProt Q01974) | 0 | 0 | 0 | 0 | 0 | 0 | 0 | 0 | 0 | 0 | 0 | 0 | 0 | 0 | 0 | 0 | 0 | 0 | 0 | 0 | 0
PIK4CB (UniProt Q9UBF8) | 0 | 0 | 0 | 0 | 0 | 0 | 0 | 0 | 0 | 0 | 0 | 0 | 0 | 0 | 0 | 0 | 0 | 0 | 0 | 0 | 0
LCK (UniProt P06239) | 0 | – | – | – | – | 0 | 0 | 0 | 0 | 0 | 0 | 0 | 0 | 0 | 0 | 0 | 0 | 0 | 0 | 0 | 0
MAP2K1 (UniProt Q02750) | 0 | 0 | 0 | 0 | 0 | 0 | 0 | 0 | 0 | 0 | 0 | 0 | 0 | 0 | 0 | 0 | 0 | 0 | 0 | 0 | 0
LIMK1 (UniProt P53667) | 0 | 0 | 0 | 0 | 0 | 0 | 0 | 0 | 0 | 0 | 0 | 0 | 0 | 0 | 0 | 0 | 0 | 0 | 0 | 0 | 0
MAPK1 (UniProt P28482) | 0 | 0 | 0 | 0 | 0 | 0 | 0 | 0 | 0 | 0 | 0 | 0 | 0 | 0 | 0 | 0 | 0 | 0 | 0 | 0 | 0
BRAF_V600E | 2 | 0 | 0 | 0 | 0 | 0 | 0 | 0 | 2 | 0 | 0 | 0 | 0 | 0 | 0 | 0 | 0 | 2 | 1 | 0 | 0
CDK5 (UniProt Q00535) | 0 | 0 | 0 | 0 | 0 | 0 | 0 | 0 | 0 | 0 | 0 | 0 | 0 | 0 | 0 | 0 | 0 | 0 | 0 | 0 | 0
ABL1 (UniProt P00519) | 0 | 3 | 0 | 0 | 0 | 0 | 0 | 0 | 4 | 0 | 0 | 0 | 0 | 0 | 4 | 0 | 0 | 0 | 0 | 0 | 0
PRKAA1 (UniProt Q13131) | 0 | 0 | 0 | 0 | 0 | 0 | 0 | 0 | 0 | 0 | 0 | 0 | 0 | 0 | 0 | 0 | 0 | 0 | 0 | 0 | 0

Some values from above:
In number of time points [2], ROR2 (UniProt Q01974) shows 0
In number of time points [13], CDK5 (UniProt Q00535) shows 0
